Values quoted from earlier work, collected in patent US20250090572A1 (priority 2020, published 2025).
At least one structure is not confirmed: it was looked up by name or label, or the drawing left a doubt.

Assays:
[1] = system: Vero-E6 cells; details: reported value, read-out: in vitro EC50; cited from earlier work
[2] = system: Vero-CCL81 cells; details: reported value, read-out: in vitro EC50; cited from earlier work

For CCC(CC)COC(=O)[C@H](C)N[P@](=O)(OC[C@H]1O[C@@](C#N)(c2ccc3c(N)ncnn23)[C@H](O)[C@@H]1O)Oc1ccccc1 [remdesivir], the EC50 [1] is given as 0.77 µM and the EC50 [2] is given as 11.4 µM.
